Here are results for 2 molecules from patent US20210396758A1.

For the experiment, the target named is Glutathione S-transferase. As to the kind of experiment: QC ELISA of the chimeric human/mouse IgG1 antibody on immobilized control protein; signal over background.

Results are given in words; binding and its absence hold for the method and conditions named. Sequences can lack the tags named with a protein.

B1: AbD33473 full length chimeric antibody against human Ambra-1 with an IgG1 mouse Fc region (antibody, V domains shown)
VH: EVQLVQSGAEVKKPGESLKISCKGSGYSFSSYWIHWVRQMPGKGLEWMGTIFPSRSYTTYSPSFQGQVTISADKSISTAYLQWSSLKASDTAMYYCARDTPSTALKSPFDYWGQGTLVTVSS
VL: DIVLTQPPSVSGAPGQRVTISCSGSSSNIGYNYVYWYQQLPGTAPKLLIYENNKRPSGVPDRFSGSKSGTSASLAITGLQAEDEADYYCSSWDSHSNSYVFGGGTKLTVLG
Regarding B1, the binding result was “no binding”.

B2: AbD33047 full length chimeric antibody against human Loricrin with an IgG1 mouse Fc region (antibody, V domains shown)
VH: QVQLVQSGAEVKKPGASVKVSCKASGYTFNDYYIHWVRQAPGQGLEWMGVISPNSGKTNYAQKFQGRVTMTRDTSISTAYMELSRLRSEDTAVYYCARDLYPDSSAFDIWGQGTLVTVSS
VL: DIELTQPPSVSVSPGQTASITCSGDNLGDKYAHWYQQKPGQAPVLVIYDDNERPSGIPERFSGSNSGNTATLTISGTQAEDEADYYCQSYDSGNRVFGGGTKLTVLG
For B2, the binding result is reported as “no binding”.
